About 7,700 (2.3%) of roughly 330,000 compounds were called active. Inconclusive results, whose numbers are uncertain, are shown with a selection of clear calls. Calls come from the whole dose curve; as a rule, active = well fitted inhibition curve with a large enough effect; inconclusive = small, poorly fitted or top-dose-only effect, or effect the other way; inactive = flat fitted curve, though single readings scatter. Potencies of inconclusive entries are doubtful fits and often do not repeat.
assay: qHTS screen for small molecules that inhibit ELG1-dependent DNA repair in human embryonic kidney (HEK293T) cells expressing luciferase-tagged ELG1; conditions: HEK293T ELG1-luciferase reporter, luminescence, 16 h, DNA damage induced by 5-fluorouridine; activity change, negative = inhibition: at 46.1 µM (top of the series); note: nearly all actives have a fitted effect of over 55% in size
In short: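 5-Fluorouridine DNA damage + compound/DMSO, 2,000 cells/well, 16 h, 37 °C/5% CO2. ONE-Glo, 30 min RT, luminescence. Readout = decrease in reporter signal.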
% is set by controls: 0 for no effect and ±100 for the full control effect; potency is the fitted concentration of half-maximal effect.

| SMILES | Potency | activity change, negative = inhibition |
| --- | --- | --- |
| COc1ccc(C(=O)c2ccc(N(C)C)cc2)c2ccccc12 | inconclusive: 29.1 µM [activator, single point] | – |
| Cc1ccc(OC(F)F)c(NC(=O)Nc2cccc(C(F)(F)F)c2)c1 | inconclusive: 29.1 µM [inhibitor, single point] | – |
| CC(=N\Nc1ccccc1)/C(=N/O)C(=O)Nc1ccccc1 | inconclusive: 16.4 µM [activator, partial curve, poor fit] | – |
| N#CC1(C#N)CC(C=O)=C(N)C1(C#N)CC(=O)C12CC3CC(CC(C3)C1)C2 (configuration not stated) | active: 16.4 µM | – |
| O=C(NCc1nc2ccccc2[nH]1)C1=C[C@@H](c2csc3ccccc23)C[C@@H](OCCCCO)O1 | active: 23.1 µM | – |
| Cc1ccc(-n2nc3ccc(NC(=O)c4ccco4)cc3n2)cc1 | inconclusive: 23.1 µM [activator, partial curve] | – |
| Fc1cccc2sc(Nc3nnc(-c4ccccc4)o3)nc12 | inconclusive: 9.2 µM [activator, partial curve] | – |
| Cc1cccc(NC(=O)CN(CC2CCCO2)C(=O)c2oc3ccccc3c2C)c1C (configuration not stated) | inconclusive: 0.651 µM [inhibitor, full curve, poor fit] | – |
| Cc1cc(C)cc(C(=O)NCCCN2CCOCC2)c1 | inconclusive: 5.62 µM [activator, single point] | – |
| Cn1ncc2c(Nc3ccc(Cl)cc3)ncnc21 | inconclusive: 29.1 µM [activator, single point] | – |
| COc1ccc(CN(C)CC2CCCN(CCc3ccc(F)cc3)C2)c(OC)c1OC (configuration not stated) | – | inactive: -10.3% |
| COc1cc(CC(=O)OCC(=O)NCc2cccs2)cc(OC)c1OC | inconclusive: 9.2 µM [activator, single point] | – |
| Oc1ccc(C2=Nn3c(nnc3-c3ccco3)SC2)cc1O | inconclusive: 0.651 µM [inhibitor, single point] | – |
| Cc1cc(C)cc(C(=O)N2CCN=C2SCc2ccc([N+](=O)[O-])cc2)c1 | inconclusive: 23.1 µM [inhibitor, partial curve] | – |
| C=CCn1c(CNC(=O)c2ccccc2C)nnc1SCC(=O)NC1CCCC1 | inconclusive: 1.78 µM [activator, partial curve, poor fit] | – |
| O=C(Nc1ccc(Cl)cc1)Nc1cccc2nsnc12 | inconclusive: 2.31 µM [activator, full curve] | – |
| COc1ncccc1-c1nnn(-c2ccc(Cl)c(Cl)c2)n1 | inconclusive: 18.3 µM [activator, partial curve] | – |
| CCCc1nc2ccc(NC(=O)NCCC(=O)OCC)cc2c(=O)n1Cc1ccc(Cl)cc1 | active: 20.6 µM | – |
| CCOCc1nnc(NC(=O)c2c(OC)cccc2OC)s1 | – | inactive: 8.85% |
| Cc1ccc(Nc2nnc(SCC(=O)NC3CC3)s2)cc1 | inconclusive: 25.9 µM [activator, single point] | – |
| Cc1ccc(S(=O)(=O)N2CCCCC2)cc1NC(=O)c1nn(C)c(=O)c2ccccc12 | – | inactive: 1.4% |
| COc1cc2c(cc1OC)-c1nc3ccccc3c(=O)n1C(C)(C)C2 | inconclusive: 18.4 µM [inhibitor, partial curve, poor fit] | – |
| CCCN1CCC(=NNc2ccc(S(=O)(=O)N(CC)CC)cc2[N+](=O)[O-])CC1 | inconclusive: 4.61 µM [inhibitor, partial curve, poor fit] | – |
| COc1ccc(/C=C2\CCCC3C2=NN(C(=O)CSc2ncn[nH]2)C3c2ccc(OC)cc2)cc1 (configuration not stated) | inconclusive: 25.9 µM [inhibitor, single point] | – |

3 structures from above, sorted by SMILES length, descending:

| SMILES | Potency | activity change, negative = inhibition |
| --- | --- | --- |
| CC(=N\Nc1ccccc1)/C(=N/O)C(=O)Nc1ccccc1 | inconclusive: 16.4 µM [activator, partial curve, poor fit] | – |
| CCOCc1nnc(NC(=O)c2c(OC)cccc2OC)s1 | – | inactive: 8.85% |
| Cn1ncc2c(Nc3ccc(Cl)cc3)ncnc21 | inconclusive: 29.1 µM [activator, single point] | – |

Next compounds.

| SMILES | Potency | activity change, negative = inhibition |
| --- | --- | --- |
| Cc1ccccc1CSCC(=O)Nc1c(C)n(C)n(-c2ccccc2)c1=O | – | inactive: 0.318% |
| O=C(O)c1ccc(N/N=C/c2c[nH]c3ccccc23)cc1 | inconclusive: 0.164 µM [activator, full curve] | – |
| CCOC(=O)c1ccc(NC(=O)C2CCCN(c3cnccn3)C2)cc1 (configuration not stated) | inconclusive: 6.51 µM [activator, full curve, poor fit] | – |
| N#Cc1ccc(Cl)cc1NC(=O)CSc1cccc[n+]1[O-] | – | inactive: -1.31% |
| Cc1ccc(/C=C/C(=O)O)cc1S(=O)(=O)N1CCC(Cc2ccccc2)CC1 | inconclusive: 25.9 µM [inhibitor, single point] | – |
| CC(=O)c1sc2nsc(SCCN3CCCC3)c2c1N | – | inactive: 0% |
| COc1ccc(NC(=O)CN2C(=O)CSc3ncccc32)cc1 | inconclusive: 20.6 µM [activator, partial curve, poor fit] | – |
| Cc1ccc(NC(=O)c2ccc(S(=O)(=O)N3CCOCC3)cc2)nc1 | – | inactive: 11.3% |
| CC1CCN(C(=O)CN2C(=O)c3cccc4cccc(c34)C2=O)CC1 | – | inactive: 6.31% |
| O=C(c1ccccc1)c1ccc(C(=O)N2CCN(c3ccccc3Cl)CC2)cc1 | – | inactive: -16.8% |
| N#CCC(=O)Nc1ccc(C(=O)OCC(=O)NC(=O)NCc2ccco2)cc1 | – | inactive: -5.42% |
| COc1ccc(/C=N/Nc2nc(N3CCCC3)nc(N3CCCC3)n2)cc1O | inconclusive: 23.1 µM [inhibitor, partial curve, poor fit] | – |
| NC(=O)c1snnc1-c1ccccc1 | inconclusive: 29.1 µM [activator, single point] | – |
| O=c1[nH]c(=O)c2nc3ccccc3nc2[nH]1 | inconclusive: 29.1 µM [inhibitor, single point] | – |
| CCC(CO)Oc1cc(NCc2ccc(F)cc2)c2ncn(C(C)C)c2c1 (configuration not stated) | inconclusive: 25.9 µM [inhibitor, single point] | – |
| CCOc1ccc(N(CC(=O)Nc2ccc(C)c(F)c2)C2=NC3CS(=O)(=O)CC3S2)cc1 (configuration not stated) | – | inactive: 3.84% |
| CC(C)c1ccc(CCNC(=O)CCNC(=O)c2ccc(Br)cc2)cc1 | – | inactive: -2.37% |
| Cc1[nH]n2cnnc2c(=O)c1Br | – | inactive: 15.3% |
| O=C(NCc1ccco1)c1cc(-c2cccnc2)nc2ccc(Cl)cc12 | inconclusive: 23.1 µM [inhibitor, single point] | – |
| CN(C(=O)COC(=O)C1CCN(S(=O)(=O)c2c(Cl)cccc2Cl)CC1)C1CCCCC1 | – | inactive: -0.488% |
| CCOc1ccc(C(=O)NCC2CCCN2S(=O)(=O)c2cccs2)cc1 (configuration not stated) | – | inactive: -15.6% |
| OC1(C#CCCN2CCCCC2)c2ccccc2-c2ccccc21 | – | inactive: 12.3% |
| COC(=O)c1ccc(/C=C/C(=O)c2ccc(OC)cc2)cc1 | inconclusive: 18.4 µM [activator, single point] | – |
| Cc1nc2sccn2c(=O)c1S(=O)(=O)Nc1cccc(Cl)c1C | – | inconclusive: 25.3% [activator] |

| SMILES | Potency | activity change, negative = inhibition |
| --- | --- | --- |
| Cc1nc2c(cc(Oc3ccc(S(=O)(=O)N4CCOCC4)cn3)c3ccsc32)s1 | inconclusive: 29.1 µM [inhibitor, single point] | – |
| CC(=O)c1ccc(N2CCN(S(=O)(=O)c3ccc(-c4cnc(C5CC5)o4)cc3)CC2)cc1 | inconclusive: 18.3 µM [inhibitor, partial curve] | – |
| O=C(OC1CCOC1=O)c1cc(S(=O)(=O)N2CCOCC2)c(Cl)cc1Cl (configuration not stated) | – | inactive: 19.8% |
| COC(=O)c1ccc(OCC(O)CN2CCc3cc(OC)c(OC)cc3C2c2ccccc2)cc1 (configuration not stated) | inconclusive: 25.9 µM [inhibitor, partial curve, poor fit] | – |
| c1cc2c3c(cccc3c1)NC1(CCCCCC1)N2 | – | inactive: -1.04% |
| COc1ccc(C(=O)Nc2ccc3nc(C)c(C)nc3c2)cc1 | inconclusive: 11.6 µM [activator, partial curve] | – |
| Cc1n[nH]c(=O)nc1N/N=C/c1ccco1 | – | inactive: 16.1% |
| Nc1c(C(=O)Nc2cccc(C(=O)O)c2)sc2nc3c(cc12)CCCC3 | inconclusive: 0.184 µM [activator, partial curve] | – |
| COc1ccccc1C(O)(C(=O)N(NC(C)=O)c1ccccc1)c1ccccc1OC | – | inactive: -7.29% |
| O=c1[nH]c(CCl)nc2cc(-c3ccc(F)cc3)sc12 | inconclusive: 4.11 µM [activator, full curve] | – |
| CCN(CC(=O)Nc1c(F)cccc1F)C(=O)CNC(=O)c1ccc(Br)o1 | inconclusive: 14.6 µM [activator, partial curve, poor fit] | – |
| CN=C1N(C)C[C@@H]2[C@@H]3C(=O)N(C)C(=O)[C@@H]3[C@](C)(C(=O)OC)N12 | inconclusive: 32.6 µM [activator, partial curve, poor fit] | – |
| COc1nnc(-c2ccc(N3CCOCC3)c(NC(=O)c3ccccc3)c2)c2ccccc12 | inconclusive: 23.1 µM [inhibitor, single point] | – |
| O=C1NCCN(Cc2ccc(Cl)c(F)c2)C1CC(=O)N1CCCO1 (configuration not stated) | inconclusive: 25.9 µM [activator, single point] | – |
| CC(=O)c1ccccc1NC(=O)COC(=O)Cc1cccc(C(F)(F)F)c1 | – | inactive: 1.52% |
| O=C(OCn1nnc2ccccc2c1=O)c1cccc(S(=O)(=O)N2CCOCC2)c1 | – | inactive: 0.0678% |
| O=C(NCc1ccc(F)cc1)c1ccc2c(=O)n3c(nc2c1)CCCCC3 | inconclusive: 29.1 µM [inhibitor, single point] | – |
| COc1ccc(C(=O)C2CCN(C(=O)c3ccco3)CC2)cc1 | – | inactive: -11.6% |
| CN(c1cc(=O)n2ccccc2n1)C1CCCCC1 | inconclusive: 25.9 µM [activator, single point] | – |
| COc1ccc2cc3c(N)nn(C(=O)Cc4ccc(Cl)cc4)c3nc2c1 | inconclusive: 3.66 µM [inhibitor, partial curve] | – |
| O=C1Nc2cc(C(=O)NCC3CCCO3)ccc2S/C1=C/c1ccccc1F (configuration not stated) | – | inactive: -0.501% |
| CCCc1[nH]n(-c2nc3ccccc3s2)c(=O)c1C=NCC(C)C | inconclusive: 20.6 µM [inhibitor, single point] | – |
| CC1CCCCC12NC(=O)N(CC(=O)N1CCN(c3ncccn3)CC1)C2=O (configuration not stated) | – | inactive: 19.5% |
| C/C(=N\NC(=O)c1ccccc1)c1ccc(NC(=O)c2cccs2)cc1 | inconclusive: 20.6 µM [activator, partial curve] | – |

Reference: PubChem BioAssay AID504467 (National Center for Advancing Translational Sciences (NCATS), 2011)
